Taken from: PubChem BioAssay AID1508597 (Cure First, 2020)
This is an unselected part of the about 2,100 reagents, in one setting of the screen. 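Calls flag viability under 80% in either arm, not effects specific to rucaparib; the reference for percent is not stated.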 Not given: the 100% reference.

- Assay: 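Knock-downs altering ovarian cancer cell survival with or without PARP inhibitor rucaparib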 (primary screen)
- Cells: human ovarian carcinoma lines grown from tumours: OCI-P5x (papillary serous) and OCI-C5x (clear cell)
- Reagent: siRNA pool against human genes, 1.25 pmol siRNA per well
- Timing: 72 h or 96 h, depending on the cell culture
- Treatment: rucaparib 20 µM (about IC30) or vehicle, present until read-out
- Rucaparib or vehicle: Rucaparib
- Cell line: OCI-C5x (clear cell)
- Detection: 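Luminescent ATP-based viability assay read 72 or 96 h after transfection, depending on culture, given as normalised percent viability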
- Scale: viability, normalised: higher = more viable cells remaining
- Call rule: 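Active when normalised viability falls below 80 percent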
- Meaning of the calls: active = viability under 80%; inactive = viability 80% or more

| gene knocked down | technical replicate | viability, normalised (%) | outcome |
| --- | --- | --- | --- |
| WDR77 | 1 | 55.1 | active |
| WDR77 | 2 | 39.6 | active |
| WDR77 | 3 | 41.3 | active |
| SOX14 | 1 | 47.1 | active |
| SOX14 | 2 | 48.4 | active |
| SOX14 | 3 | 44.2 | active |
| KAT2A | 1 | 62.6 | active |
| KAT2A | 2 | 50.4 | active |
| KAT2A | 3 | 50.5 | active |
| ING3 | 1 | 44.6 | active |
| ING3 | 2 | 37.9 | active |
| ING3 | 3 | 45.1 | active |

Continued; the last 3 above are carried over.
| gene knocked down | technical replicate | viability, normalised (%) | outcome |
| --- | --- | --- | --- |
| ING3 | 1 | 44.6 | active |
| ING3 | 2 | 37.9 | active |
| ING3 | 3 | 45.1 | active |
| RPS6KA1 | 1 | 36.5 | active |
| RPS6KA1 | 2 | 59 | active |
| RPS6KA1 | 3 | 64.1 | active |
| SLC22A12 | 1 | 52.6 | active |
| SLC22A12 | 2 | 55 | active |
| SLC22A12 | 3 | 50.3 | active |
| MED25 | 1 | 33.3 | active |
| MED25 | 2 | 38.2 | active |
| MED25 | 3 | 37.8 | active |
| DDR2 | 1 | 56.6 | active |
| DDR2 | 2 | 69.6 | active |
| DDR2 | 3 | 65.1 | active |
